{"source": "patent US20080171705A1", "about": "“METHODS OF INDUCING AND TREATING VASCULAR DISEASE” (priority 2007, published 2008)", "assay_type_in_all_cases": "in vivo", "key": {"apoE^−/− mice [1]": {"tested_on": "apoE^−/− mice", "assay": "Atherosclerosis quantitation, \"en face\" surface lesion analysis (Sudan IV)", "details": "13 weeks of age; dose dependent; P<0.0001, one-way ANOVA vs vehicle"}, "apoE^−/− mice [2]": {"tested_on": "apoE^−/− mice", "assay": "Atherosclerosis quantitation, aortic root analysis (oil red O)", "details": "P<0.05, one-way ANOVA vs vehicle control"}, "apoE^−/− mice [3]": {"tested_on": "apoE^−/− mice", "assay": "CD68 immunohistochemistry at the aortic root (inflammatory macrophages)", "details": "dose dependent; P<0.05, one-way ANOVA vs vehicle"}, "apoE^−/− mice [4]": {"tested_on": "apoE^−/− mice", "assay": "Abdominal aortic adventitia lesion analysis (incidence and severity)", "details": "the one positive mouse vs vehicle control; Daugherty classification I-IV", "text": "ApoE^−/− mice (backcrossed ten times to the C57BL/6 background) were purchased from The Jackson Laboratory. The mice were kept on a twelve-hour light/twelve-hour dark regimen upon arrival. All animal experiments were approved by the IACUC of the Consumer & Personal Product Worldwide, in accordance with AAALAC guidelines. Eight week old, male apoE^−/− mice were fed a normal mouse-chow diet (RP5001; PMI Feeds Inc., St. Louis, Mo.) and acclimated for one week before switching to a pro-atherogenic high fat, high cholesterol, diet (“Western diet”, 21% fat, 0.2% cholesterol, diet No. 88137, Harlan-Teklad, Madison, Wis.) for four weeks. […]\nThe abdominal aorta was subjected to abdominal aortic adventitia lesion analysis. […] Classification of the adventitia lesions was determined according to the scale based on the gross appearance of the aorta reported by Daugherty et al. Briefly, I: Dilated lumen in the supra-renal region of the aorta with no thrombus; II: Remodeled tissue in the supra-renal region that frequently contains thrombus; III: A pronounced bulbous form of type II that contains thrombus; IV: A form in which there are multiple adventitia lesions containing thrombus, some overlapping, in the suprarenal area of the aorta."}, "apoE^−/− mice [5]": {"tested_on": "apoE^−/− mice", "assay": "Histological and immunohistochemical analysis of adventitia lesions (elastin, CD68, CD31)"}}, "note": "At least one compound was matched to its structure with a doubt left."}
{"smiles": "CO[C@H]1C[C@@H]2CC[C@@H](C)[C@@](O)(O2)C(=O)C(=O)N2CCCC[C@H]2C(=O)O[C@H]([C@H](C)C[C@@H]2CC[C@@H](O)[C@H](OC)C2)CC(=O)[C@H](C)/C=C(\\C)[C@@H](O)[C@@H](OC)C(=O)[C@H](C)C[C@H](C)/C=C/C=C/C=C/1C", "note": "[sirolimus]", "values": [{"measurement": "atherosclerotic lesions, percent of aortic surface area (en face)", "setting": "apoE^−/− mice [1]", "value": "reduced atherosclerotic lesions"}, {"measurement": "lesion area at the aortic root (oil red O positive staining area)", "setting": "apoE^−/− mice [2]", "value": "significantly (P<0.05, one-way ANOVA) reduced"}, {"measurement": "CD68 positive area at the aortic root", "setting": "apoE^−/− mice [3]", "value": "Significant reduction in CD68 positive area"}, {"measurement": "severity of abdominal aortic adventitia lesions", "setting": "apoE^−/− mice [4]", "value": "Much less advanced abdominal aortic adventitia lesion"}, {"measurement": "inflammatory macrophage (CD68) accumulation in the granulomas", "setting": "apoE^−/− mice [5]; adventitia lesions", "value": "prevents inflammatory macrophages accumulation"}, {"measurement": "CD31+ cell accumulation (vasa vasorum) in adventitia lesions", "setting": "apoE^−/− mice [5]; vessel wall", "value": "obviously prevents this event"}, {"measurement": "media lamina and elastin disruption in adventitia lesional tissue", "setting": "apoE^−/− mice [5]; vs complete disruption in vehicle control", "value": "the extent of media disruption was obviously reduced"}]}
